Earlier results in US20190255078A1, “TOPICAL COMPOSITIONS WITH STABLE SOLUBILIZED SELECTIVE RETINOIDS AND/OR TETRACYCLINE-CLASS ANTIBIOTICS” (BioPharmX, Inc., priority 2018, published 2019).
At least one structure is not confirmed: it was looked up by name or label, or the drawing left a doubt.

System: antibiotic-resistant P. acnes
Details: clinical isolates of antibiotic-resistant P. acnes; cited from earlier work

For CCC[C@@H]1C[C@@H](C(=O)N[C@@H]([C@H]2O[C@H](SC)[C@H](O)[C@@H](O)[C@H]2O)[C@H](C)Cl)N(C)C1 [clindamycin], the “average MIC90” value is given as 64 mg/L.
